Measured values reported in the supplement of paper PMC8426693.
The list shows a part of the results.

Tests used:
Experiment in all cases: NMR binding call after quantification (hit when 2 of 3 NMR criteria are met) (binary (1 = binding, 0 = not binding)); higher = binding
Settings in all cases: RNA concentration 10 µM; fragment concentration 200 µM; 293 K
[1] = tested on: SARS-CoV-2 5_SL7 RNA
[2] = tested on: SARS-CoV-2 5_SL8 RNA
[3] = tested on: SARS-CoV-2 attenuator hairpin (att HP) RNA
[4] = tested on: SARS-CoV-2 frameshift pseudoknot (PK) RNA

Measured: NMR binding call

CCC(CC)C(=O)Nc1nccs1
0: all assays above

CC(C)(C)N1CC(O)C1
0: all assays above

CS(=O)(=O)NCC1CCNCC1
0: all assays above

COc1ccc(C(N)C(=O)O)cc1 (centres undefined)
0: all assays above

COCC(=O)Nc1cccc(NC(C)=O)c1
0: all assays above

Cc1ccc(Nc2ncnc3[nH]ncc23)cc1
0: all assays above

CS(=O)(=O)Nc1ccc(-c2ccccc2)cc1
0: all assays above

CCS(=O)(=O)NCc1ccc2c(c1)OCO2
0: all assays above

CC(=O)NCCN1CCCCCC1
0: all assays above

CCn1cc(C(=O)NCc2ccc(F)cc2)cn1
0: all assays above

CC(Cc1ccc(Br)cc1)C(N)=O (centres undefined)
0: all assays above

COc1ccc(NCc2ccc(F)cc2)cc1
0: all assays above

CC(C)C(=O)Nc1nnn(C)n1
0: all assays above

O=C(Nc1nc2ccccc2[nH]1)C1CCCCC1
0: all assays above

O=S1(=O)CCN(Cc2ccco2)CC1
0: all assays above

c1nc(CN2CCNCC2)cs1
0: all assays above

CNC(=O)C1CNCCO1 (centres undefined)
0: all assays above

Cc1sc2ncnc(N(C)C)c2c1C
0: all assays above

COCC(=O)Nc1ccc(O)cc1
0: all assays above

CN(CC(=O)O)C(=O)c1ccccn1
0: all assays above

c1ccc(CCNc2nc3ccccc3[nH]2)cc1
0: all assays above

OCCN1CCOCC1
0: all assays above

Cc1ccc(OCC(=O)N2CCOCC2)c(C)c1
0: all assays above

Cc1ccc(CC(=O)Nc2nccs2)cc1
0: all assays above

COc1ccc(N2CC(C(N)=O)CC2=O)cc1 (centres undefined)
0: all assays above

CNc1ccccc1S(C)(=O)=O
0: all assays above

O=C(Nc1nccs1)C1CC1c1ccccc1 (centres undefined)
0: all assays above

Fc1ccc(CNCc2ccccc2)cc1
0: all assays above

CS(=O)(=O)Cc1nc2ccccc2[nH]1
0: all assays above

CC(=O)NC1CNc2ccccc2C1 (centres undefined)
0: all assays above

CC1CN(C)CCC1Nc1cnn(C)c1 (centres undefined)
0: all assays above

CN(c1ccc(C(N)=O)nn1)C1CCC1
0: all assays above

COc1ccc(C(=O)Nc2ccccc2F)cc1
0: all assays above

NC(=O)c1ccc(NC(=O)c2ccccc2)cc1
0: all assays above

In the list so far, these contain four or more nitrogen atoms.
Cc1ccc(Nc2ncnc3[nH]ncc23)cc1
0: all assays above

CC(C)C(=O)Nc1nnn(C)n1
0: all assays above

CC1CN(C)CCC1Nc1cnn(C)c1 (centres undefined)
0: all assays above

CN(c1ccc(C(N)=O)nn1)C1CCC1
0: all assays above

Additional structures follow.

c1nc(N2CCC2)c2[nH]cnc2n1
0: all assays above

CN(C)Cc1ccc(C(=O)O)o1.Cl
0: all assays above

COCC(=O)NCc1nc2ccccc2[nH]1
0: all assays above

Cc1ccccc1OCC(=O)Nc1ccccc1
1: [4]
0: all other assays above

CC(=O)Nc1cccc2nonc12
0: all assays above

Cc1cc(C)nc(Nc2ccccc2)n1
0: all assays above

Nc1ccccc1OCc1ccccc1
0: all assays above

COCC(=O)Nc1nnc(C)s1
0: all assays above

Cc1nccn1Cc1cccc(C#N)c1
0: all assays above

CN(C)CCN1C(=O)c2ccccc2C1=O
0: all assays above

C1CC(c2nc(C3CC3)no2)CN1 (centres undefined)
0: all assays above

CCC(=O)NC1CCNC1 (centres undefined)
0: all assays above

CNc1ncccn1
0: all assays above

CC(C)(N)CN1CCCC1
0: all assays above

CN(C)C(=O)OCCn1ccnc1
0: all assays above

CC(=O)N1CCN(CCCc2ccccc2)CC1
0: all assays above

Cc1nccn1CC(C)O (centres undefined)
0: all assays above

CC(C)(O)CN1CCC(N)C1 (centres undefined)
0: all assays above

CCCC(=O)Nc1cccnc1Cl
0: all assays above

CNC(=O)c1cnc(C)s1
0: all assays above

CCc1cc(=O)n2nc(NC)sc2n1
0: all assays above

CC1CN(S(=O)(=O)N(C)C(C)C)CCO1 (centres undefined)
0: all assays above

Fc1ccccc1CNc1cn[nH]c1
0: all assays above

Cn1ccc(C(=O)NCC2CCCO2)n1 (centres undefined)
0: all assays above

OCc1cn(-c2ccc(Cl)cc2)nn1
0: all assays above

Cc1ncc(CNc2cncc(F)c2)s1
0: all assays above

O=C(Cc1ccccc1)N1CCc2ccccc21
0: all assays above

CC(C)n1cnc(S(N)(=O)=O)c1
0: all assays above

Oc1ccccc1-c1nc(-c2ccccc2)no1
0: all assays above

CN1CCN(C(=O)Nc2ccccc2)CC1
0: all assays above

Cc1cnc(NC(=O)CCC2CCCC2)s1
0: all assays above

CC(=O)Nc1ccc(CN2CCOCC2)cc1
0: all assays above

CC(C)NC(=O)c1ccc2ccccc2n1
0: all assays above

CNS(=O)(=O)CC1CCCCC1
0: all assays above

Cc1nn(C)c(C)c1CC(N)=O
0: all assays above

Cc1ccccc1-n1cc(C(=O)O)nn1
0: all assays above

O=c1[nH]cc(N2CCCCC2)c(=O)[nH]1
0: all assays above

CCS(=O)(=O)N1CCC(C(=O)O)CC1
0: all assays above

Cc1noc(NC(=O)CC2CCCC2)n1
0: all assays above

CC(CO)N(C)c1ncccc1F (centres undefined)
0: all assays above

CNC(=O)CN(C)C1CCCCCC1
0: all assays above

CS(=O)(=O)Nc1ccc(C(N)=O)cc1
0: all assays above

CC1CCCN(C(=O)CO)C1 (centres undefined)
0: all assays above

O=C(CC1CCCCC1)Nc1cccnc1
0: all assays above

CS(=O)(=O)Nc1ccc(CN)cc1.Cl
0: all assays above

CCC(CO)NC(=O)Nc1ccc(Cl)cc1 (centres undefined)
0: all assays above

Cc1cncc(NCc2ccncc2)c1
0: all assays above

CC(C)NC(=O)N(C)C1CCS(=O)(=O)C1 (centres undefined)
0: all assays above

CN1CCN(CCN)CC1(C)C
0: all assays above

Fc1cccnc1NCC1CCOCC1
0: all assays above

CNCC1COc2ccccc2O1 (centres undefined)
0: all assays above

COC(=O)Nc1nnc(CC2CCCC2)s1
0: all assays above

3 compounds already listed, ordered by formula weight, ascending.
CN1CCN(CCN)CC1(C)C
0: all assays above

CNCC1COc2ccccc2O1 (centres undefined)
0: all assays above

CC(C)NC(=O)N(C)C1CCS(=O)(=O)C1 (centres undefined)
0: all assays above

Further entries follow.

CC(NS(C)(=O)=O)c1ccccc1Cl (centres undefined)
0: all assays above

CC1CNCCN1CCO (centres undefined)
0: all assays above

CNC(=O)c1nc2ccccc2c(=O)[nH]1
0: all assays above

CC(c1ccccc1F)N1CCNCC1.Cl.Cl (centres undefined)
0: all assays above

O=C(CC1CCCCC1)Nn1cnnc1
0: all assays above

CCNC(=O)c1c[nH]nn1
0: all assays above

CNC1CCCN(c2ccccc2)C1=O (centres undefined)
0: all assays above

CC(=O)NCc1ncc[nH]1
0: all assays above

OCc1ccccc1N1CCOCC1
0: all assays above

CNC(=O)Nc1nc2ccc(OC)cc2s1
1: [1] | [4]
0: [2] | [3]
